Reference: patent publication US11046715B2, “Boronic derivatives of hydroxamates as anticancer agents” (Xavier University of Louisiana, priority 2016, dated 2021)

System: SK-OV-3: human ovarian cancer
Experiment: In vitro cytotoxicity / antiproliferation, SK-OV-3
Format: cell-based
Conditions: SK-OV-3, read-out: Antiproliferation activity (IC50)
Description: The in vitro cytotoxicity of boronic derivatives of hydroxamates was tested against various cancer cell lines; the results are provided in Table 1.

O=C(CCCCCCC(=O)Nc1ccccc1)NO [Vorinostat, reference compound]
IC50: 124 nM
